{"sequences": {"note": "By UniProt entry, the sequences of proteins in these tests, tags left out.", "UniProt Q14191, whole entry, looked up": "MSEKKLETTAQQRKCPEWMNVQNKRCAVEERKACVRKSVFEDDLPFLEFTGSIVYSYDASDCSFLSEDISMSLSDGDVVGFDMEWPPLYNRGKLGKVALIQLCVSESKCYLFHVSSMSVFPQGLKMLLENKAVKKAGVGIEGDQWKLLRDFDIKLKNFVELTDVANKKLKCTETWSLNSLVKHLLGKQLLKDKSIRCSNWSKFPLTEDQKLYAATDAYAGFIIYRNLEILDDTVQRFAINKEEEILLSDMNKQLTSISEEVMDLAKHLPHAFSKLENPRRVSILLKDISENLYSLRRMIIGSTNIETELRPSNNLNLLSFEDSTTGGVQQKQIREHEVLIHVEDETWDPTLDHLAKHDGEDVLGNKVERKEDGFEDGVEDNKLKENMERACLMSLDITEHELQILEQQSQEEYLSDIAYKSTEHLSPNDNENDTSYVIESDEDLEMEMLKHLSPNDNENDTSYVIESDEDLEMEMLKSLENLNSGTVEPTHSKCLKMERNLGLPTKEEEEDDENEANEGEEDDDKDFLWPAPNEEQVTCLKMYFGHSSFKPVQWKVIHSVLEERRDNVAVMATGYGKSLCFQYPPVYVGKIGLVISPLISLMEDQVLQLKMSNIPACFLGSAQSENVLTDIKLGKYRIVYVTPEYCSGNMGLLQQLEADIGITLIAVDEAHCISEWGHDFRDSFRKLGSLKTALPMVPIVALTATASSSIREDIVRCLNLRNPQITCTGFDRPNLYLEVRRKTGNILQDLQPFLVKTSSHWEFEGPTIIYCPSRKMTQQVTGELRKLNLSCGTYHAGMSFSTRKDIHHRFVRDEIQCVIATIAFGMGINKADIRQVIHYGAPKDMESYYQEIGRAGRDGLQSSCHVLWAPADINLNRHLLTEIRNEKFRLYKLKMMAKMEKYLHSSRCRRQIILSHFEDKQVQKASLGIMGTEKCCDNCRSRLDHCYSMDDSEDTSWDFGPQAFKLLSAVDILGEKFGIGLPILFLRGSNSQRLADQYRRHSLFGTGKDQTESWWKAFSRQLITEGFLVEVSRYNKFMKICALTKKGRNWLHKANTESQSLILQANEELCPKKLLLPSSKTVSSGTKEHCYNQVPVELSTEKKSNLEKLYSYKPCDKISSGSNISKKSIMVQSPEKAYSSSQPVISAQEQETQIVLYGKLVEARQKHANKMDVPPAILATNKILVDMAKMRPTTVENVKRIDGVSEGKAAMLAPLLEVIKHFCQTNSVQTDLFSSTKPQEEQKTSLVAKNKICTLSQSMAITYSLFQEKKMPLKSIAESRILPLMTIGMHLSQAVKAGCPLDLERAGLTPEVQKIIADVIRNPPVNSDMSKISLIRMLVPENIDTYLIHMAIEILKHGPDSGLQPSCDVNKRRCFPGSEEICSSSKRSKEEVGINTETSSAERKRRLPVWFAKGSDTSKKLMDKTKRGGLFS"}, "source": "PubChem BioAssay AID651768", "about": "(National Center for Advancing Translational Sciences (NCATS), 2012)", "note": "In all, about 360,000 compounds went through this assay and about 1,700 (0.47%) were called active. This list was built around the results that the source calls inconclusive (neither active nor inactive); the mix of calls is not that of the screen. Calls follow the shape of the dose curve; as a rule, active = well fitted inhibition curve with a large enough effect; inconclusive = small, poorly fitted or top-dose-only effect; inactive = no such curve, though single readings can be large or run the other way. A potency beside an inconclusive call is a rough fit, not a confirmed value. Potency is read from the fitted curve at half-maximal effect.", "data": [{"molecular_target": "Bifunctional 3'-5' exonuclease/ATP-dependent helicase WRN (Homo sapiens) (UniProt Q14191)", "test": "qHTS for Inhibitors of WRN Helicase; also: nearly all actives have a fitted effect of over 55% in size", "conditions": "WRN helicase unwinding, fluorescent forked duplex, kinetic; series mostly up to 114 µM", "summary_of_the_method": "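Fluorescence dequenching readout, ex 525 nm/em 598 nm, kinetic mode: forked duplex DNA (100 nM final) with adjacent fluorophore and quencher unwound by WRN (20 nM final) with 2 mM ATP. Compound preincubation 15 min, room temperature.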", "values": [{"molecule": "Cc1ccc(N=C2NC(=O)S/C2=C\\c2ccco2)cc1", "Potency": "inconclusive: 44.7 µM [inhibitor, partial curve]"}, {"molecule": "CC(C)C[C@@H](CNCC(=O)[C@H](Cc1ccccc1)NC(=O)c1[nH]cnc1C(=O)N[C@H](CN)CC(C)C)NC(=O)c1nc[nH]c1C(=O)N[C@@H](CC(=O)O)C(=O)O", "Potency": "inactive"}, {"molecule": "Cn1c(=O)oc2cc(S(=O)(=O)Nc3ccccc3)ccc21", "Potency": "inactive"}, {"molecule": "Oc1cccc(NC(=S)N=Nc2c(O)[nH]c3ccccc23)c1", "Potency": "inconclusive: 7.94 µM [inhibitor, full curve, poor fit]"}, {"molecule": "CC1CCc2cc(F)ccc2N1C(=O)CSc1nnc2c(n1)[nH]c1ccc(F)cc12", "note": "(stereo not drawn)", "Potency": "inconclusive: 28.2 µM [inhibitor, single point]"}, {"molecule": "NC(=O)c1ccsc1NC(=O)CSc1nncs1", "Potency": "inconclusive: 50.1 µM [inhibitor, partial curve, poor fit]"}, {"molecule": "O=C1C=CC(=O)N1c1ccc(Nc2ccccc2)cc1", "Potency": "inconclusive: 79.4 µM [inhibitor, partial curve]"}, {"molecule": "COc1ccc(CC(=O)Nc2ncc([N+](=O)[O-])s2)cc1OC", "Potency": "inconclusive: 56.2 µM [inhibitor, partial curve]"}, {"molecule": "COc1ccc(S(=O)(=O)/N=C2/NC(=O)/C(=C/c3ccco3)S2)cc1", "Potency": "inconclusive: 20 µM [inhibitor, full curve]"}, {"molecule": "O=C(Cn1c(=O)cnc2ccccc21)Nc1cc(Cl)ccc1N1CCOCC1", "Potency": "inconclusive: 20 µM [inhibitor, full curve, poor fit]"}, {"molecule": "CC(=O)NS(=O)(=O)c1ccc(NC(=O)c2cc(-c3ccc(C)c(C)c3)nc3ccccc23)cc1", "Potency": "inconclusive: 31.6 µM [inhibitor, partial curve]"}, {"molecule": "COc1ccc2oc(=O)c(-c3nnc(NCc4ccco4)s3)cc2c1", "Potency": "inconclusive: 56.2 µM [inhibitor, partial curve]"}, {"molecule": "O=C(O)c1ccccc1NC(=O)c1cc(-c2ccccc2)nc2ccccc12", "Potency": "inconclusive: 15.8 µM [inhibitor, full curve, poor fit]"}, {"molecule": "COc1ccc(OC)c(/C=N/NC(=O)CSc2cc(C)nc3c(OC)cccc23)c1", "Potency": "inconclusive: 25.1 µM [inhibitor, single point]"}, {"molecule": "O=C(NCCCN1CCCC1=O)c1ccc2c(c1)ncn2C1CCCCC1", "Potency": "inactive"}, {"molecule": "CCCCOc1ccc(C2CCC(C(C)=O)C(C)C2)cc1", "note": "(stereo not drawn)", "Potency": "inconclusive: 89.1 µM [inhibitor, single point]"}, {"molecule": "O=C1/C(=C\\c2cccc([N+](=O)[O-])c2O)SC(=S)N1Cc1ccccc1", "Potency": "inconclusive: 39.8 µM [inhibitor, partial curve]"}, {"molecule": "COc1ccccc1CC(=O)NCC(c1ccco1)N1CCCCC1", "note": "(stereo not drawn)", "Potency": "inactive"}, {"molecule": "C/C(=N\\NC(=O)CSc1nc2ccccc2o1)c1ccc(O)cc1", "Potency": "inconclusive: 89.1 µM [inhibitor, single point]"}, {"molecule": "CC(=O)c1cccc(CN2CCC(C(=O)Nc3cccc(-c4ccn[nH]4)c3)CC2)c1", "Potency": "inconclusive: 89.1 µM [inhibitor, single point]"}, {"molecule": "O=C(CCNS(=O)(=O)c1cccc(Cl)c1)OCC(=O)N1CCN(C(=O)c2ccco2)CC1", "Potency": "inconclusive: 56.2 µM [inhibitor, partial curve, poor fit]"}, {"molecule": "COc1cc(/C=C2/SC(=O)NC2=O)ccc1OC(=O)c1ccco1", "Potency": "inconclusive: 31.6 µM [inhibitor, full curve]"}, {"molecule": "Clc1ccc(NC2(c3nnnn3C3CCCCC3)CCCCC2)cc1", "Potency": "inactive"}, {"molecule": "Cc1cn2c(N)c(C=C3C=C(Cl)C(=O)C(Cl)=C3)c(=O)nc2s1", "Potency": "inactive"}, {"molecule": "COc1ccccc1CNC(=O)C(C)Sc1ccsc1[N+](=O)[O-]", "note": "(stereo not drawn)", "Potency": "inactive"}, {"molecule": "CCCCc1cc(O)c(CCCC)c(O)c1", "Potency": "inactive"}, {"molecule": "CCN(CC)S(=O)(=O)c1ccc(C(=O)NCc2ccc3c(c2)cc(C)n3C)cc1", "Potency": "active: 50.1 µM"}, {"molecule": "CC(C)C(=O)N(c1cc2sc(=O)oc2c2ccccc12)S(=O)(=O)c1cccs1", "Potency": "inactive"}, {"molecule": "O=C(Nc1ccc(Cl)c(Cl)c1)Nc1nnc(-c2ccncc2)s1", "Potency": "inconclusive: 2.67 µM [inhibitor, partial curve]"}, {"molecule": "Cc1cc(C(=O)O)ccc1-n1c(C)cc(/C=C(/C#N)C(=O)Nc2ccccc2)c1C", "Potency": "inconclusive: 63.1 µM [inhibitor, single point]"}, {"molecule": "CCOc1ccc(-n2ccc(=O)c(C(=O)Nc3ccc(S(=O)(=O)Nc4nccs4)cc3)n2)cc1", "Potency": "inconclusive: 50.1 µM [inhibitor, partial curve]"}, {"molecule": "O=C(NNC(=O)c1cc2cc(OC(F)(F)F)ccc2[nH]1)c1cccc(C(F)(F)F)c1", "Potency": "inactive"}, {"molecule": "CC(=O)OC[C@H]1O[C@@H](n2ncc(=O)[nH]c2=O)[C@H](OC(C)=O)[C@@H]1OC(C)=O", "Potency": "inactive"}, {"molecule": "COc1cc(-c2cc(=O)c3c(O)c(OC)c(OC)c(O)c3o2)ccc1O", "Potency": "inconclusive: 56.2 µM [inhibitor, partial curve]"}, {"molecule": "Cc1cccc(NC(=O)COc2ccc(/C=C\\c3[nH]c(=O)[nH]c(=O)c3[N+](=O)[O-])cc2)c1", "Potency": "inconclusive: 50.1 µM [inhibitor, partial curve]"}, {"molecule": "CCSc1nc(N)c(C#N)c(-c2ccco2)c1C#N", "Potency": "inconclusive: 100 µM [inhibitor, partial curve, poor fit]"}, {"molecule": "O=C(O)C1Sc2[nH]c(=O)sc2C2c3ccc(O)cc3OC(=O)C12", "note": "(stereo not drawn)", "Potency": "active: 25.1 µM"}, {"molecule": "Cc1nnc(SCC(=O)Nc2ccc(S(=O)(=O)Nc3ccc(Cl)nn3)cc2)s1", "Potency": "inconclusive: 50.1 µM [inhibitor, partial curve]"}, {"molecule": "CCC1(CC)NC(=O)N(CC(=O)Nc2sc3c(c2C(N)=O)CCC3)C1=O", "Potency": "inconclusive: 10 µM [inhibitor, full curve]"}, {"molecule": "COc1ccccc1Oc1ccc2c(c1)C(=O)N(c1cccc3ncccc13)C2=O", "Potency": "inconclusive: 17.8 µM [inhibitor, single point]"}, {"molecule": "COc1ccc(/C=N/NC(=O)Cn2cnc3c2c(=O)n(C)c(=O)n3C)c(OC)c1OC", "Potency": "inactive"}, {"molecule": "COc1ccc(/C=C2\\CCn3c2nc2cc(C(=O)O)ccc2c3=O)cc1O", "Potency": "inconclusive: 17.8 µM [inhibitor, full curve]"}, {"molecule": "O=c1oc2c3c4c(cc2s1)CCCN4CCC3", "Potency": "inconclusive: 56.2 µM [inhibitor, partial curve]"}, {"molecule": "O=c1c2ccccc2c(C=Nc2ccc(O)cc2)c(O)n1-c1nccs1", "Potency": "inconclusive: 89.1 µM [inhibitor, partial curve]"}, {"molecule": "CCCCCC1C(=O)N2C=C(c3ccccc3)c3ccccc3N2C1=O", "note": "(stereo not drawn)", "Potency": "inconclusive: 12.6 µM [inhibitor, full curve, poor fit]"}, {"molecule": "CN(c1ccccc1)S(=O)(=O)c1cccc(NC(=O)CCNC(=O)c2ccc([N+](=O)[O-])cc2)c1", "Potency": "inconclusive: 20 µM [inhibitor, full curve, poor fit]"}, {"molecule": "CCOc1ccc(Cc2n[nH]c(=S)n2N)cc1", "Potency": "inactive"}, {"molecule": "O=c1cc(O)n(-c2ccccc2)c(=S)[nH]1", "Potency": "inactive"}, {"molecule": "CCNc1ccc(Br)cc(C(=O)/C=C/c2ccc(Cl)cc2Cl)c1=O", "Potency": "inconclusive: 56.2 µM [inhibitor, partial curve]"}, {"molecule": "CCOC(=O)/C(=C/c1ccc(OC(=O)c2ccccc2)cc1)C(C)=O", "Potency": "inconclusive: 50.1 µM [inhibitor, partial curve]"}, {"molecule": "COc1ccc(CCN2C(=O)C=CC2=O)cc1OC", "Potency": "active: 31.6 µM"}, {"molecule": "O=C(O)c1cccc(N2C(=O)c3cc([N+](=O)[O-])cc4cc([N+](=O)[O-])cc(c34)C2=O)c1", "Potency": "active: 39.8 µM"}, {"molecule": "Cc1cc(/C=C2/C(=O)N(C)C(=S)N2C)c(C)n1C1CC1", "Potency": "inactive"}, {"molecule": "Cc1cccc(NC(=O)c2cc3c(=O)n4ccccc4nc3s2)c1", "Potency": "inconclusive: 17.8 µM [inhibitor, full curve]"}, {"molecule": "O=C(CCn1c(=S)[nH]c2ccccc2c1=O)Nc1cccc(Cl)c1", "Potency": "inactive"}, {"molecule": "OC(CNCc1ccccc1)c1ccccc1", "note": "(stereo not drawn)", "Potency": "inconclusive: 39.8 µM [inhibitor, single point]"}, {"molecule": "COc1ccc(NC(=O)Nc2ccc([N+](=O)[O-])cc2)cn1", "Potency": "inconclusive: 79.4 µM [inhibitor, partial curve]"}, {"molecule": "CCC(=O)N1CCN(c2ccc(NC(=O)COc3ccc(CC)cc3)cc2)CC1", "Potency": "inconclusive: 12.6 µM [inhibitor, single point]"}, {"molecule": "CCc1cc2c(=O)n3c(nc2s1)-c1[nH]c2ccc(OC)cc2c1CC3", "Potency": "inconclusive: 89.1 µM [inhibitor, partial curve, poor fit]"}, {"molecule": "O=C(N/N=C/c1ccc[nH]1)c1ccc(COc2cccc3cccnc23)cc1", "Potency": "inactive"}, {"molecule": "CCOC(=O)/C(=C\\c1cn(C)c2ccccc12)[N+](=O)[O-]", "Potency": "inconclusive: 56.2 µM [inhibitor, partial curve]"}, {"molecule": "O=c1[nH]n2c(=O)c3c([nH]c2c1N=Nc1cccc(Cl)c1)CCC3", "Potency": "inconclusive: 28.2 µM [inhibitor, partial curve]"}, {"molecule": "O=C(/C=C\\c1ccco1)c1ccc(NC(=O)c2ccco2)cc1", "Potency": "inconclusive: 56.2 µM [inhibitor, partial curve]"}, {"molecule": "CCOC(=O)c1sc2nc3c(SCCC#N)cc(C(=O)c4cc(F)ccc4O)cn3c(=O)c2c1C", "Potency": "inactive"}, {"molecule": "CC(/C=C/c1ccco1)=N\\NC(=O)c1cccnc1", "Potency": "inconclusive: 56.2 µM [inhibitor, partial curve]"}, {"molecule": "COc1ccc2c(c1)c1ccc3c(c1n2C)C(=O)C=CC3=O", "Potency": "inactive"}, {"molecule": "CSc1cccc(NC(=S)N(CCCN2CCCC2)Cc2cccn2Cc2ccc(Cl)cc2)c1", "Potency": "inconclusive: 89.1 µM [inhibitor, single point]"}, {"molecule": "CCN(CC)c1ccc(C(=C2C=CC(=[N+](CC)CC)C=C2)c2ccccc2)cc1", "Potency": "active: 44.7 µM"}]}]}
